# Measured values taken from patent US20140088187A1, “ANDROGEN RECEPTOR INHIBITORS AND METHODS OF USE THEREOF” (BETH ISRAEL DEACONESS MEDICAL CENTER, priority 2010, published 2014).
# For at least one compound, name, drawing or mass did not settle the structure.
# System: VCaP xenograft tumors
# Experiment: Post-castration relapsed VCaP xenograft tumors (model of CRPC)
# Assay type: in vivo
# Method: FIG. 17. Compound A89 maintains activity in vivo and is efficacious in a CRPC xenograft model. (a) Morphological changes in seminal vesicles of intact adult male mice following treatment with DMSO vehicle, Bic (0.5 mg/day) or A89 (mg/day as indicated) for 7 days. (b) H&E stained cross-sections of prostate ductal epithelium from above mice treated with DMSO, Bic, or A89 (10 mg/day). (c) AR and Ki-67 staining in pre- and post-castration relapsed VCaP xenograft tumor sections following treatment with A89 (5 mg/day) or Bic (0.5 mg/day) for 7 days. (d) mRNA levels of AR and AR-target genes in post-castration relapsed VCaP xenograft tumors following treatment with A89 (5 mg/day) for 7 days. Error bars represent S.E.M.
# To evaluate the activity of the chemotype A compounds in vivo we first treated adult male mice with compound A89 in a dose ranging experiment from 0.5 mg/day to 10 mg/day via intraperitoneal injection for 7 days. […] We next evaluated A89 in VCaP xenograft tumors that had relapsed following an initial response to castration, which is a model of CRPC.
structure (smiles),measurement,setting,value
"CC(O)(CS(=O)(=O)c1ccc(F)cc1)C(=O)Nc1ccc(C#N)c(C(F)(F)F)c1 (centres unmarked) [bicalutamide, reference compound]",nuclear AR expression / staining in tumor,A89 5 mg/day or Bic 0.5 mg/day for 7 days,enhanced nuclear AR expression
same,response of relapsed VCaP xenografts,Bic 0.5 mg/day for 7 days,refractory
